Assay: Effect of temperature on lipase activity
Assay type: biochemical
Conditions: for optimum activity (temperature): 10 minutes reaction

B1: lipase of SEQ ID NO: 2: polypeptide having lipase activity from Thermoanaerobacter thermohydrosulfuricus DSM 7021 and T. brockii subsp. brockii DSM 1457 (protein, listed as Thermoanaerobacter thermohydrosulfuricus)
chain: MQKAVEITYNGKTLRGMMHLPDDVKGKVPMVIMFHGFTGNKVESHFIFVKMSRALEKVGIGSVRFDFYGSGESDGDFSEMTFSSELEDARQILKFVKEQPTTDPERIGLLGLSMGGAIAGIVAREYKDEIKALVLWAPAFNMPELIMNESVKQYGAIMEQLGFVDIGGHKLSKDFVEDISKLNIFELSKGYDKKVLIVHGTNDEAVEYKVSDRILKEVYGDNATRVTIENADHTFKSLEWEKKAIEESVEFFKKELLKG
- optimum activity (temperature): 75 °C
- activity above 85-90° C.: little activity

B2: lipase of SEQ ID NO: 4: polypeptide having lipase activity from Caldanaerobacter subterraneus subsp. tengcongensis DSM 15242 (protein, listed as Thermoanaerobacter tencongensis)
chain: VQKAVEFTYNRKTLRGMLHLPEGVSEKVPMVVMFHGFTGNKVESHFIFVKMSRALEKVGIGSVRFDFYGSGESDGDFSEMTFSGELEDARQILDFVKRQPTTDVERIGLLGLSMGGAIAGIIARERKEDVKALVLWAPAFNMPELIMGEGARQYGAIMESLGYVDIGGLKLDRAFVEDIAKFNIFELSRGYEGKVLIVHGTNDEAVEYRISDRILQEVYGDNAFRVTIEGADHTFKNLEWERKAIEESVKFFERELKG
- optimum activity (temperature): 75 °C
- activity above 85-90° C.: little activity
